# Laboratory results as given in PMC9299836 (eLife, 2022).
# Chains of the proteins cited; added tags and fusions are not shown. Residues count along the entry.
# UniProt Q14BI2, 19-872 A548F: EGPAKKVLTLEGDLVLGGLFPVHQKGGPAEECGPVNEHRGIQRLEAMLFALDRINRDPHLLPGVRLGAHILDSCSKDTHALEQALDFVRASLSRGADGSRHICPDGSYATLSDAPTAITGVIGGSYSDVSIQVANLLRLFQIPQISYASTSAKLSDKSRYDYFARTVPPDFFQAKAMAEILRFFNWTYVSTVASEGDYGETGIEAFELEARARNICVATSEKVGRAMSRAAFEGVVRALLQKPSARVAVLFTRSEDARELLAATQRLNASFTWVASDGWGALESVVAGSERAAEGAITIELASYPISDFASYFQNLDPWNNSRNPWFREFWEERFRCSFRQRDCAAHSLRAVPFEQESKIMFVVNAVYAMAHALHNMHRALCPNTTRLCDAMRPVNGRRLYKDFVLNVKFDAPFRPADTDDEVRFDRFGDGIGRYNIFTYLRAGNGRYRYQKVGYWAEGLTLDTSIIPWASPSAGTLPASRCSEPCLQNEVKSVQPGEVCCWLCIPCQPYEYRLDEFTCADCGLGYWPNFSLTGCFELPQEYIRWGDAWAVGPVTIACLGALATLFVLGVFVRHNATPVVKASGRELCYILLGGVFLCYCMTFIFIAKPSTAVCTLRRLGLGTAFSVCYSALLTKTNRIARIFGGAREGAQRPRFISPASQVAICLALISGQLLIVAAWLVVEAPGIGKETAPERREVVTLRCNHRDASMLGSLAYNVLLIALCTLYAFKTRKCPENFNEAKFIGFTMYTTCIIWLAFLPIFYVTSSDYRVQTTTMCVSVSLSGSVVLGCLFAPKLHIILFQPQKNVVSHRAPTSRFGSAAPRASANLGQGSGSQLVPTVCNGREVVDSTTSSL
# Several values for one entry are separate records, joined by “and”; a condition that tells them apart may be missing. Identical values can stand only once. The source gives many values for each of these; only a part stands here.
# How the values were obtained:
# mGluR2 [1] = target: T1, mGluR2 (Mus musculus, UniProt Q14BI2, A548F); assay: Single-molecule FRET (SiMPull) of azi-CRD: population histograms and state occupancy; details: N 3;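 further: Cy3/Cy5-labelled receptor from HEK293T cell lysate captured on anti-FLAG surfaces, apparent FRET efficiency computed from donor and acceptor intensities with crosstalk correction, pooled into population histograms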
# mGluR2 [2] = target: T1, mGluR2; assay: Live-cell FRET, azi-CRD (cysteine-rich domain) sensor in HEK293T cells; details: Glutamate + 10μM modulator (NAM), single-cell replicate
substance,measurement,setting,value
MNI-137,"smFRET Histogram, Mean","mGluR2 [1]; FRET 0, 15μM Glutamate + 5μM MNI-137",1.90E-04
same,"smFRET Histogram, Mean","mGluR2 [1]; FRET 0, 1000μM Glutamate + 5μM MNI-137",8.06E-05
same,"smFRET Histogram, Mean","mGluR2 [1]; FRET 0.02, 15μM Glutamate + 5μM MNI-137",1.91E-04
same,"smFRET Histogram, Mean","mGluR2 [1]; FRET 0.02, 1000μM Glutamate + 5μM MNI-137",7.71E-05
same,"smFRET Histogram, Mean","mGluR2 [1]; FRET 0.04, 15μM Glutamate + 5μM MNI-137",2.94E-04
same,"smFRET Histogram, Mean","mGluR2 [1]; FRET 0.04, 1000μM Glutamate + 5μM MNI-137",1.18E-04
same,"smFRET Histogram, Mean","mGluR2 [1]; FRET 0.06, 15μM Glutamate + 5μM MNI-137",5.40E-04
same,"smFRET Histogram, Mean","mGluR2 [1]; FRET 0.06, 1000μM Glutamate + 5μM MNI-137",2.21E-04
same,"smFRET Histogram, Mean","mGluR2 [1]; FRET 0.08, 15μM Glutamate + 5μM MNI-137",0.00117
same,"smFRET Histogram, Mean","mGluR2 [1]; FRET 0.08, 1000μM Glutamate + 5μM MNI-137",3.52E-04
same,"smFRET Histogram, Mean","mGluR2 [1]; FRET 0.1, 1000μM Glutamate + 5μM MNI-137",7.30E-04
same,"smFRET Histogram, Mean","mGluR2 [1]; FRET 0.12, 1000μM Glutamate + 5μM MNI-137",0.00117
same,"smFRET Histogram, Mean","mGluR2 [1]; FRET 0.14, 1000μM Glutamate + 5μM MNI-137",0.00156
same,"smFRET Histogram, Mean","mGluR2 [1]; FRET 0.16, 1000μM Glutamate + 5μM MNI-137",0.00286
same,"smFRET Histogram, Mean","mGluR2 [1]; FRET 0.18, 1000μM Glutamate + 5μM MNI-137",0.00466
same,"smFRET Histogram, Mean","mGluR2 [1]; FRET 0.2, 1000μM Glutamate + 5μM MNI-137",0.00732
same,"smFRET Histogram, Mean","mGluR2 [1]; FRET 0.22, 1000μM Glutamate + 5μM MNI-137",0.01064
same,"smFRET Histogram, Mean","mGluR2 [1]; FRET 0.24, 1000μM Glutamate + 5μM MNI-137",0.01539
same,"smFRET Histogram, Mean","mGluR2 [1]; FRET 0.26, 1000μM Glutamate + 5μM MNI-137",0.02135
same,"smFRET Histogram, Mean","mGluR2 [1]; FRET 0.28, 1000μM Glutamate + 5μM MNI-137",0.02877
same,"smFRET Histogram, Mean","mGluR2 [1]; FRET 0.3, 1000μM Glutamate + 5μM MNI-137",0.03634
same,"smFRET Histogram, Mean","mGluR2 [1]; FRET 0.32, 1000μM Glutamate + 5μM MNI-137",0.04326
same,"smFRET Histogram, Mean","mGluR2 [1]; FRET 0.34, 1000μM Glutamate + 5μM MNI-137",0.04886
same,"smFRET Histogram, Mean","mGluR2 [1]; FRET 0.36, 1000μM Glutamate + 5μM MNI-137",0.05287
same,"smFRET Histogram, Mean","mGluR2 [1]; FRET 0.38, 1000μM Glutamate + 5μM MNI-137",0.05298
same,"smFRET Histogram, Mean","mGluR2 [1]; FRET 0.4, 1000μM Glutamate + 5μM MNI-137",0.05067
same,"smFRET Histogram, Mean","mGluR2 [1]; FRET 0.42, 1000μM Glutamate + 5μM MNI-137",0.04614
same,"smFRET Histogram, Mean","mGluR2 [1]; FRET 0.44, 1000μM Glutamate + 5μM MNI-137",0.04059
same,"smFRET Histogram, Mean","mGluR2 [1]; FRET 0.46, 1000μM Glutamate + 5μM MNI-137",0.0349
same,"smFRET Histogram, Mean","mGluR2 [1]; FRET 0.48, 1000μM Glutamate + 5μM MNI-137",0.02946
same,"smFRET Histogram, Mean","mGluR2 [1]; FRET 0.5, 1000μM Glutamate + 5μM MNI-137",0.02497
same,"smFRET Histogram, Mean","mGluR2 [1]; FRET 0.52, 1000μM Glutamate + 5μM MNI-137",0.02157
same,"smFRET Histogram, Mean","mGluR2 [1]; FRET 0.56, 1000μM Glutamate + 5μM MNI-137",0.01843
same,"smFRET Histogram, Mean","mGluR2 [1]; FRET 0.6, 1000μM Glutamate + 5μM MNI-137",0.01844
same,"smFRET Histogram, Mean","mGluR2 [1]; FRET 0.64, 1000μM Glutamate + 5μM MNI-137",0.01921
same,"smFRET Histogram, Mean","mGluR2 [1]; FRET 0.66, 1000μM Glutamate + 5μM MNI-137",0.02051
same,"smFRET Histogram, Mean","mGluR2 [1]; FRET 0.7, 1000μM Glutamate + 5μM MNI-137",0.0221
same,"smFRET Histogram, Mean","mGluR2 [1]; FRET 0.72, 1000μM Glutamate + 5μM MNI-137",0.02264
same,"smFRET Histogram, Mean","mGluR2 [1]; FRET 0.74, 1000μM Glutamate + 5μM MNI-137",0.02318
same,"smFRET Histogram, Mean","mGluR2 [1]; FRET 0.76, 1000μM Glutamate + 5μM MNI-137",0.02287
same,"smFRET Histogram, Mean","mGluR2 [1]; FRET 0.78, 1000μM Glutamate + 5μM MNI-137",0.02218
same,"smFRET Histogram, Mean","mGluR2 [1]; FRET 0.8, 1000μM Glutamate + 5μM MNI-137",0.02218
same,"smFRET Histogram, Mean","mGluR2 [1]; FRET 0.82, 1000μM Glutamate + 5μM MNI-137",0.02139
same,"smFRET Histogram, Mean","mGluR2 [1]; FRET 0.88, 1000μM Glutamate + 5μM MNI-137",0.01677
same,"smFRET Histogram, Mean","mGluR2 [1]; FRET 0.9, 1000μM Glutamate + 5μM MNI-137",0.01432
same,"smFRET Histogram, Mean","mGluR2 [1]; FRET 0.92, 1000μM Glutamate + 5μM MNI-137",0.01194
same,"smFRET Histogram, Mean","mGluR2 [1]; FRET 0.94, 15μM Glutamate + 5μM MNI-137",0.00365
same,"smFRET Histogram, Mean","mGluR2 [1]; FRET 0.94, 1000μM Glutamate + 5μM MNI-137",0.00931
same,"smFRET Histogram, Mean","mGluR2 [1]; FRET 0.96, 15μM Glutamate + 5μM MNI-137",0.00278
same,"smFRET Histogram, Mean","mGluR2 [1]; FRET 0.96, 1000μM Glutamate + 5μM MNI-137",0.00698
same,"smFRET Histogram, Mean","mGluR2 [1]; FRET 0.98, 15μM Glutamate + 5μM MNI-137",0.00234
same,"smFRET Histogram, Mean","mGluR2 [1]; FRET 0.98, 1000μM Glutamate + 5μM MNI-137",0.00498
same,"smFRET Histogram, Mean","mGluR2 [1]; FRET 1, 15μM Glutamate + 5μM MNI-137",0.00153
same,"smFRET Histogram, Mean","mGluR2 [1]; FRET 1, 1000μM Glutamate + 5μM MNI-137",0.00349
same,"smFRET Histogram, Mean","mGluR2 [1]; FRET 1.02, 15μM Glutamate + 5μM MNI-137",9.54E-04
same,"smFRET Histogram, Mean","mGluR2 [1]; FRET 1.02, 1000μM Glutamate + 5μM MNI-137",0.00213
same,"smFRET Histogram, Mean","mGluR2 [1]; FRET 1.04, 15μM Glutamate + 5μM MNI-137",6.26E-04
same,"smFRET Histogram, Mean","mGluR2 [1]; FRET 1.04, 1000μM Glutamate + 5μM MNI-137",0.00117
same,"smFRET Histogram, Mean","mGluR2 [1]; FRET 1.06, 15μM Glutamate + 5μM MNI-137",3.38E-04
same,"smFRET Histogram, Mean","mGluR2 [1]; FRET 1.06, 1000μM Glutamate + 5μM MNI-137",7.38E-04
same,"smFRET Histogram, Mean","mGluR2 [1]; FRET 1.08, 15μM Glutamate + 5μM MNI-137",2.07E-04
same,"smFRET Histogram, Mean","mGluR2 [1]; FRET 1.08, 1000μM Glutamate + 5μM MNI-137",3.26E-04
same,"smFRET Histogram, Mean","mGluR2 [1]; FRET 1.1, 15μM Glutamate + 5μM MNI-137",1.36E-04
same,"smFRET Histogram, Mean","mGluR2 [1]; FRET 1.1, 1000μM Glutamate + 5μM MNI-137",2.33E-04
same,"smFRET Histogram, Mean","mGluR2 [1]; FRET 1.12, 15μM Glutamate + 5μM MNI-137",6.87E-05
same,"smFRET Histogram, Mean","mGluR2 [1]; FRET 1.12, 1000μM Glutamate + 5μM MNI-137",1.43E-04
same,"smFRET Histogram, Mean","mGluR2 [1]; FRET 1.14, 15μM Glutamate + 5μM MNI-137",4.72E-05
same,"smFRET Histogram, Mean","mGluR2 [1]; FRET 1.14, 1000μM Glutamate + 5μM MNI-137",9.47E-05
same,"smFRET Histogram, Mean","mGluR2 [1]; FRET 1.16, 15μM Glutamate + 5μM MNI-137",3.60E-05
same,"smFRET Histogram, Mean","mGluR2 [1]; FRET 1.18, 15μM Glutamate + 5μM MNI-137",1.28E-05
same,"smFRET Histogram, Mean","mGluR2 [1]; FRET 1.18, 1000μM Glutamate + 5μM MNI-137",4.15E-05
same,"smFRET Histogram, Mean","mGluR2 [1]; FRET 1.2, 15μM Glutamate + 5μM MNI-137",3.64E-05
same,"smFRET Histogram, Mean","mGluR2 [1]; FRET 1.2, 1000μM Glutamate + 5μM MNI-137",1.07E-04
same,"azi-CRD normalized FRET response, individual cell",mGluR2 [2]; log[Glutamate] (M) -3,0.8599
same,"azi-CRD normalized FRET response, individual cell",mGluR2 [2]; log[Glutamate] (M) -4.52288,0.612 and 0.5545 and 0.6252 and 0.5963 and 0.6607 and 0.6606 and 0.6075 (2×) and 0.6161 and 0.6314 and 0.5831 and 0.6211 and 0.6312 and 0.6918 and 0.4556 and 0.5894 and 0.603 and 0.6513 and 0.6442 and 0.4891 and 0.5784 and 0.6509 and 0.5804 and 0.6046 and 0.6034 and 0.561 and 0.5497
